PubChem BioAssay AID1224830, NIAID, 2016

Purpose: 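Host factors that control LPS-induced TNF expression in human macrophages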 (primary screen)
Cells: human THP-1 monocytic leukaemia cells, TNF dual-luciferase reporter clone, PMA-differentiated to macrophage-like cells
Reagents: siRNA pool against human genes, 50 nM
Time to read-out: LPS for 4 h, given about 3 days after siRNA transfection
Treatment: bacterial LPS (TLR4 ligand), 10 ng/ml
Measurement: 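Ratio of firefly to renilla light, scaled to the plate median and expressed as a robust z-score per replicate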
Direction: TNF reporter robust z-score: higher = stronger TNF reporter response to LPS
Call rule: 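a well is active when its z-score exceeds 2.8 or falls below -1.5; control wells carry no call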
Here is one part, drawn at random, of about 18,000 deposited reagents. Of all reagents, about 2,900 (16%) got an active call. 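Calls are made per well; low scores hint the gene aids the LPS response, high scores that it dampens it.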 Repeated entries: four replicate wells of each siRNA pool.

gene	TNF reporter robust z-score	activity call
PRNP	-1.03	inactive
PRNP	-0.93	inactive
PRNP	-0.75	inactive
PRNP	2.67	inactive
PKDCC	1.85	inactive
PKDCC	4.92	active
PKDCC	2.35	inactive
PKDCC	4.06	active
SND1-IT1	-0.44	inactive
SND1-IT1	-0.13	inactive
SND1-IT1	-0.23	inactive
SND1-IT1	-0.37	inactive
LIN7B	-1.18	inactive
LIN7B	-1.03	inactive
LIN7B	-1.21	inactive
LIN7B	-0.78	inactive
PYGB	1.26	inactive
PYGB	1.48	inactive
PYGB	0.8	inactive
PYGB	1.24	inactive

Reformatted: 6 of the entries above.
{"gene":"PRNP","TNF reporter robust z-score":-0.75,"activity call":"inactive"}
{"gene":"PRNP","TNF reporter robust z-score":2.67,"activity call":"inactive"}
{"gene":"PKDCC","TNF reporter robust z-score":1.85,"activity call":"inactive"}
{"gene":"PKDCC","TNF reporter robust z-score":4.92,"activity call":"active"}
{"gene":"PKDCC","TNF reporter robust z-score":2.35,"activity call":"inactive"}
{"gene":"PKDCC","TNF reporter robust z-score":4.06,"activity call":"active"}

The listing continues.
gene	TNF reporter robust z-score	activity call
SLC16A1	-0.12	inactive
SLC16A1	-0.65	inactive
SLC16A1	-1.17	inactive
SLC16A1	-0.82	inactive
IREB2	0.95	inactive
IREB2	0.52	inactive
IREB2	0.67	inactive
IREB2	0.76	inactive
SRSF1	-1.54	active
SRSF1	-0.69	inactive
SRSF1	-1.58	active
SRSF1	-1.37	inactive
DUSP8	1.08	inactive
DUSP8	-0.19	inactive
DUSP8	0.03	inactive
DUSP8	1.81	inactive
PPT2	-0.79	inactive
PPT2	-0.51	inactive
PPT2	0.96	inactive
PPT2	0.72	inactive
CACNA1S	0	inactive
CACNA1S	-0.44	inactive
CACNA1S	0.09	inactive
CACNA1S	-1	inactive
NUP42	0.67	inactive
NUP42	0.59	inactive
NUP42	-0.99	inactive
NUP42	-0.65	inactive
